Measurements published in article PMC9334622.
These are yes or no findings as the source states them, for the method shown. In cells and extracts the contact can be indirect. Some entries that bind do so weakly or less than the wild type.

Sequences of proteins named here, by UniProt entry; tags and fusion partners are left off.
UniProt Q9NQU5: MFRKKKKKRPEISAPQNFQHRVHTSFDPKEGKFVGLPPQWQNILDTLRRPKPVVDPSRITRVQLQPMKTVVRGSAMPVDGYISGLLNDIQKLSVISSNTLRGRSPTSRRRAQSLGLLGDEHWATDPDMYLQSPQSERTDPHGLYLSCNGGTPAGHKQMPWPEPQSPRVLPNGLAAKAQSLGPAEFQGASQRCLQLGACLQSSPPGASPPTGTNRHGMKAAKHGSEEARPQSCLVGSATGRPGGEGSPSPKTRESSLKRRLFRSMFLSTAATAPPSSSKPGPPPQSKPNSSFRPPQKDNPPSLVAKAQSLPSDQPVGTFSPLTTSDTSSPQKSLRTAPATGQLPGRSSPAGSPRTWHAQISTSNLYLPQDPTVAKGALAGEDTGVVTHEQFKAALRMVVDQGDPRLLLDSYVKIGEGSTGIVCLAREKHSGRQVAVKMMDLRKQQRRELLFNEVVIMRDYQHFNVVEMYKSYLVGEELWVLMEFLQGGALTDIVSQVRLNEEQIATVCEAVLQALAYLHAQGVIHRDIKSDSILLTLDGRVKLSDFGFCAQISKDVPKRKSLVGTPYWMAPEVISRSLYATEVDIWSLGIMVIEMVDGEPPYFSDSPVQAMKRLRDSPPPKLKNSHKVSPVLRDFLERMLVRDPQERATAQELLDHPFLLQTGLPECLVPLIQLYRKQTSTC
UniProt Q06609: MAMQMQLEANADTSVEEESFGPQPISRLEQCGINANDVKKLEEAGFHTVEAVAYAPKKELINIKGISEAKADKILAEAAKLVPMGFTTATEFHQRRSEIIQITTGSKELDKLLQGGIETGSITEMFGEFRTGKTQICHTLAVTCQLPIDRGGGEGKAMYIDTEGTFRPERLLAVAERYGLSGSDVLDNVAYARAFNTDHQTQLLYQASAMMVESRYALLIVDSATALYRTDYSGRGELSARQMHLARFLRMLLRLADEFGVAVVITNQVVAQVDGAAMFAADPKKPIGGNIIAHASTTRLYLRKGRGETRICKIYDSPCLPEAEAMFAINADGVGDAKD
UniProt Q13535: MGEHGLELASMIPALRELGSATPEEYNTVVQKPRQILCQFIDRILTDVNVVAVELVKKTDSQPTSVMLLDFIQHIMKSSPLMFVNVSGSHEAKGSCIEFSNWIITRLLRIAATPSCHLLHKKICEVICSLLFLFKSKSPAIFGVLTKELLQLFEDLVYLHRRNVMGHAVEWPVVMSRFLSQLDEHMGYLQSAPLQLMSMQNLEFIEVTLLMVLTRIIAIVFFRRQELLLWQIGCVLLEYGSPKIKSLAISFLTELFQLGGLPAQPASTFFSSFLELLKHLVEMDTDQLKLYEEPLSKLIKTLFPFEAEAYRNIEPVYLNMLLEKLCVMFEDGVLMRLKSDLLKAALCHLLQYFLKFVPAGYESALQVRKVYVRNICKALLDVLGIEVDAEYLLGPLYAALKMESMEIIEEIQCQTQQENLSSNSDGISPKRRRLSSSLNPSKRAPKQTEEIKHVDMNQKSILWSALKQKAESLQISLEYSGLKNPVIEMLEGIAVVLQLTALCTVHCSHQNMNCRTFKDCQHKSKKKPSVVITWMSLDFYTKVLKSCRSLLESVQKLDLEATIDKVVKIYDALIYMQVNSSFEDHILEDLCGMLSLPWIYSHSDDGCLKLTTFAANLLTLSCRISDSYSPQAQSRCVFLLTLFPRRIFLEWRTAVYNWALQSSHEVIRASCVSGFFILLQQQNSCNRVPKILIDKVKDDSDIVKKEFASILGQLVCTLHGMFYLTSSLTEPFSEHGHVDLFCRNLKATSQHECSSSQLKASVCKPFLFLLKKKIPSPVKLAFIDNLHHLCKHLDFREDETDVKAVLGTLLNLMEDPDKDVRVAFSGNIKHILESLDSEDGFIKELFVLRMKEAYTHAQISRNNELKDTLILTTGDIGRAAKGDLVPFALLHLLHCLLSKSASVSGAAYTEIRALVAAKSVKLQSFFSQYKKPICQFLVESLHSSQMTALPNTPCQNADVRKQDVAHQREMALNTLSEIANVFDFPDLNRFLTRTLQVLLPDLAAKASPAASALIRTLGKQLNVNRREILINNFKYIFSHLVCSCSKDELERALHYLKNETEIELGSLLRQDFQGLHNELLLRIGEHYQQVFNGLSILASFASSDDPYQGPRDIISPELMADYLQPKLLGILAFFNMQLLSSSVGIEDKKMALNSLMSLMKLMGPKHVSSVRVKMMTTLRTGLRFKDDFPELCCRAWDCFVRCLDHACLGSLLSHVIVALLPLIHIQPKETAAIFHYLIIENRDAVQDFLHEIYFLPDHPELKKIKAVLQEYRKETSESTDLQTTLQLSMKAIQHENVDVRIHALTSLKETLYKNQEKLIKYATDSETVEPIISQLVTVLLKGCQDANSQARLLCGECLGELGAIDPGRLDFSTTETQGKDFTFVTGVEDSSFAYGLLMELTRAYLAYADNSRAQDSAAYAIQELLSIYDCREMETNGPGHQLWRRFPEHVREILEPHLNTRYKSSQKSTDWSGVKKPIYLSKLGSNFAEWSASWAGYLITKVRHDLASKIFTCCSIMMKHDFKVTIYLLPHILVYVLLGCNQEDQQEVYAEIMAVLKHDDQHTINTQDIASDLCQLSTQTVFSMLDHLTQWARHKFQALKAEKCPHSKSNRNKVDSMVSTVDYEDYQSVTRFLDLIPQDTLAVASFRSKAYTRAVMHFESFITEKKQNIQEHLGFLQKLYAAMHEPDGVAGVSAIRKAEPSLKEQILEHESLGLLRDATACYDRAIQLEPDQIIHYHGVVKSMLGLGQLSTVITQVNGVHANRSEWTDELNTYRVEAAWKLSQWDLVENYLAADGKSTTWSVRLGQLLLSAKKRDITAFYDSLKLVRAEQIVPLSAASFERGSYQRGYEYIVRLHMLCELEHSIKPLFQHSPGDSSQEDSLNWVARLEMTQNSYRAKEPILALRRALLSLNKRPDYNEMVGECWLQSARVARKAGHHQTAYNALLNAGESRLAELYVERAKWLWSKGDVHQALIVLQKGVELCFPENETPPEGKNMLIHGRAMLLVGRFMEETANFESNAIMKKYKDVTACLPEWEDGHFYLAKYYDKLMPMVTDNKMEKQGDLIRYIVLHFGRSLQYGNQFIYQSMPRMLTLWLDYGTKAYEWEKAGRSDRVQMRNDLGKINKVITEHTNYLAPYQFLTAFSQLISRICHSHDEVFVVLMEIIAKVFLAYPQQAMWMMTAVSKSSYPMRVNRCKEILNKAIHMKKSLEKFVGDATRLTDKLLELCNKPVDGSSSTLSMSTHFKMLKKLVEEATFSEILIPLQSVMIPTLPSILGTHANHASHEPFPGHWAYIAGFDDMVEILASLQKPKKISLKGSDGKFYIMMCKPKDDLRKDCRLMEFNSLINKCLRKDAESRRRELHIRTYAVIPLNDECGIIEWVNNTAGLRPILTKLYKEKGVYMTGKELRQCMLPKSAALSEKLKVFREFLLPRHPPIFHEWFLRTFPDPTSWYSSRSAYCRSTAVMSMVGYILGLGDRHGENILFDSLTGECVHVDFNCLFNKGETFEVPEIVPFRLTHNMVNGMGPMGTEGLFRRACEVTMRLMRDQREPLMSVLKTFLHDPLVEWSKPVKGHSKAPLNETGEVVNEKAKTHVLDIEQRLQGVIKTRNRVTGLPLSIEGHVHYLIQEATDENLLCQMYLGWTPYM

How the values were obtained:
[1] = molecular target: p21-actived kinase 6 (PAK6) (UniProt Q9NQU5); experiment: co-IP; GC cells exposed to oxaliplatin (Fig. S9a, b); cell line and precipitating antibody not given
[2] = molecular target: p21-actived kinase 6 (PAK6) (UniProt Q9NQU5); experiment: co-IP; as a2 but in MGC-803 cells, untreated (Fig. S7c-e)
[3] = molecular target: p21-actived kinase 6 (PAK6) (UniProt Q9NQU5); experiment: co-IP; anti-PAK6 antibody, control and PAK6 overexpression SGC-7901 cells, untreated; cytoplasmic and nuclear extracts; Magnetic Co-IP Kit, 4 °C overnight; blot for p-ATR and p-CHK1
[4] = molecular target: p21-actived kinase 6 (PAK6) (UniProt Q9NQU5); experiment: co-IP; anti-PAK6 antibody, control and PAK6 overexpression SGC-7901 cells treated with oxaliplatin for 24 h; cytoplasmic and nuclear extracts; Magnetic Co-IP Kit, 4 °C overnight; blot for p-ATR and p-CHK1
[5] = molecular target: p21-actived kinase 6 (PAK6) (UniProt Q9NQU5); experiment: co-IP; as a1 but in MGC-803 cells, treated with oxaliplatin (Fig. S7c-e)

binding [1] | binding [2] | binding [3] | binding [4] | binding [5] | Substance
binds | – | – | – | – | RAD51 (from UniProt Q06609 1-339)
– | binds weakly | binds weakly | binds | binds | phosphorylated ATR (p-ATR) (from UniProt Q13535 1-2644)
